The other results are listed elsewhere or left out. Further columns of the screen follow, without active or inactive calls. Compounds called inactive in the main read-out are mostly missing here. Potencies come from curve fits of mixed quality, noted in brackets.
Experiment: qHTS Assay to Find Inhibitors of Chronic Active B-Cell Receptor Signaling
Settings: ABC-DLBCL IkBa-CBG/CBR reporter, luminescence ratio (green luciferase fused to IkBa over red control in TMD8 lymphoma cells), 4 h
How it was run: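 Doxycycline induced both beetle luciferases in TMD8 lymphoma cells; IKK-driven degradation limits the IkappaBalpha-fused green signal, while red luminescence normalises for cell number and nonspecific effects. Compounds tested up to 46 uM, 4 hrs.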

[1] = measured here: CBR red luminescence, cell number
[2] = measured here: IkBa-CBG green luminescence

In the case of `CC(=O)Nc1ccc(CNc2ncnc3ccc(-c4c(C)noc4C)cc23)cc1`, the AC50 [1] is reported as 10.3 µM [rising, partial curve].
With `O=C(NNC(=O)c1cccc(C(F)(F)F)c1)c1ccncc1` the AC50 [1] was 12.6 µM [falling, single point].
With `CCCCc1c(O)nc(SCC(=O)c2ccccc2)[nH]c1=O` the AC50 [1] was 6.51 µM [rising, single point].
For `COc1ccc(N2CCN(c3cc(=O)n(Cc4ccc(F)cc4)c(=O)[nH]3)CC2)cc1`, the AC50 [1] was 32.6 µM [rising, single point].
For `c1ccc2c(C3=NNC(=NC4CCCCC4)SC3)c[nH]c2c1`, the AC50 [1] was 1.16 µM [falling, partial curve, poor fit].
With `COCC(=O)n1nc(-c2ccc(C)cc2)nc1NCc1ccc(F)cc1` the AC50 [1] was 5.01 µM [rising, partial curve].
With `Cc1nc(-c2ccc(Cl)cc2)sc1C1(C)CC(c2c(Cl)cccc2Cl)=NO1` (configuration not stated) the AC50 [1] was 17.8 µM [rising, single point].
In the case of `CN(CC(=O)Nc1ccccc1Cl)CC(=O)Nc1c(F)cccc1F`, the AC50 [1] is reported as 35.5 µM [rising, single point].
With `O=c1cc(N2CCOCC2)[nH]c(=O)n1Cc1ccc(F)cc1` the AC50 [1] was 0.92 µM [falling, partial curve, poor fit].
For `Cc1cc(NC(=O)CSc2nc(CCC3CCCC3)nc3ccccc23)no1`, the AC50 [1] was 16.4 µM [falling, partial curve, poor fit].
In the case of `CCOC(=O)C1CCN(C(=O)COc2cc(C)c(Br)c(C)c2)CC1`, the AC50 [1] is reported as 0.891 µM [falling, full curve].
In the case of `C=CCn1c(C)csc1=Nc1ccc(C(C)=O)cc1`, the AC50 [1] is reported as 2.82 µM [rising, full curve].
For `COc1ccc(C2C(CC(=O)O)=C(O)C(=O)N2c2ccccc2)cc1` (configuration not stated), the AC50 [1] was 7.08 µM [falling, partial curve, poor fit].
With `O=C(NC1CCCCCCC1)c1ccc2c(c1)OCO2` the AC50 [1] was 10.3 µM [falling, partial curve, poor fit].
For `Cc1ccc2c(c1)/C(=C/c1ccc(F)cc1)C(=O)N2`, the AC50 [1] was 35.5 µM [falling, single point].
For `C=CCOc1cccc(C2C(C(=O)c3ccc(C)o3)=C(O)C(=O)N2c2nccs2)c1` (configuration not stated), the AC50 [1] was 6.31 µM [falling, single point].
For `O=C(CCS(=O)(=O)c1ccccc1)Nc1nccs1`, the AC50 [1] was 23.1 µM [falling, single point].
With `O=C(COC(=O)/C=C/c1ccc(OC(F)F)cc1)NC(=O)NCc1ccccc1` the AC50 [1] was 29.1 µM [rising, single point].
For `O=S(=O)(c1cccs1)N1CCC(CO)(Cc2ccc(Cl)cc2)CC1`, the AC50 [1] was 35.5 µM [falling, partial curve, poor fit].
With `O=[N+]([O-])c1cc(C(F)(F)F)ccc1NCCc1c[nH]c2ccc(O)cc12` the AC50 [1] was 2.91 µM [rising, partial curve, poor fit].
With `Cn1cc(Cl)c(C(=O)NNC(=S)Nc2cccc(Cl)c2)n1` the AC50 [1] was 7.94 µM [falling, partial curve].
With `Cc1cccc(N2C(=O)CC(Sc3ccccc3C(=O)O)C2=O)c1` (configuration not stated) the AC50 [1] was 11.6 µM [falling, partial curve, poor fit].
With `COc1ccc(C(=O)/C=C/Nc2cc(C)ccn2)cc1` the AC50 [1] was 8.91 µM [falling, partial curve].
With `C(=N\Nc1nc2ccccc2[nH]1)/c1ccc2c(c1)OCO2` the AC50 [1] was 10 µM [falling, partial curve].
In the case of `COc1ccccc1C(=O)COC(=O)c1cnc(C)cn1`, the AC50 [1] is reported as 18.4 µM [rising, partial curve, poor fit].
In the case of `COc1ccc(C(=O)/C=C/Nc2ccc(S(=O)(=O)Nc3nc(C)cc(C)n3)cc2)c(OC)c1`, the AC50 [1] is reported as 10 µM [rising, partial curve, poor fit] and the AC50 [2] is reported as 10 µM [falling, partial curve, poor fit].
In the case of `CCOC(=O)N1CCN(C(=O)COc2cccc3c2CCN(Cc2ccccc2F)C3=O)CC1`, the AC50 [1] is reported as 16.4 µM [falling, single point].
With `O=C(CCCN1C(=O)/C(=C\c2cccs2)SC1=S)Nc1ccccn1` the AC50 [1] was 12.6 µM [falling, partial curve].
In the case of `COc1cc(N/N=C/c2ccc(N(C)C)cc2)ncn1`, the AC50 [1] is reported as 3.55 µM [rising, partial curve, poor fit].
For `Cc1ccc(C(=O)CC(=O)c2cccc(F)c2)c(O)c1`, the AC50 [1] was 4.11 µM [rising, full curve, poor fit].
With `CCOC(=O)c1csc(NC(=O)c2ccc3c(c2)OCCO3)n1` the AC50 [1] was 0.891 µM [falling, full curve, poor fit].
With `CCN(CC(=O)Nc1ccccc1OC)C(=O)CN1C(=O)NC(C)(c2ccccc2)C1=O` (configuration not stated) the AC50 [1] was 6.51 µM [rising, single point].
For `COc1cc2ccccc2cc1C(=O)Nc1cccnc1`, the AC50 [1] was 32.6 µM [falling, single point].
For `CCN(CC)c1ccc(NC(=O)C2CCCC2)cc1`, the AC50 [1] was 0.501 µM [rising, partial curve, poor fit].
With `Cc1ccc(C)c(-c2nc3ccc(N)cc3[nH]2)c1` the AC50 [1] was 10.3 µM [falling, partial curve, poor fit].
With `C/C(CC(=O)Nc1ccc2c(c1)OCCO2)=N\NC(=O)c1cccc(O)c1` the AC50 [1] was 14.1 µM [falling, partial curve].
With `COc1cccc(C(=O)OCC(=O)c2ccc(Br)s2)c1` the AC50 [1] was 31.6 µM [falling, single point].
For `CCSc1nnc(NC(=O)c2ccc(C)o2)s1`, the AC50 [1] was 13 µM [falling, partial curve, poor fit].
In the case of `O=C(COc1ccc(Cl)cc1)Nc1ccc2oc(=O)ccc2c1`, the AC50 [1] is reported as 0.794 µM [falling, full curve, poor fit].
In the case of `COc1ccc(CNC(=O)CN2C(=O)COc3ccc(S(=O)(=O)N4CCOCC4)cc32)cc1`, the AC50 [1] is reported as 3.16 µM [falling, partial curve, poor fit].
For `CC(=O)c1ccc(NC(=O)CSc2cn[nH]n2)cc1`, the AC50 [1] was 10 µM [falling, partial curve].
In the case of `COc1ccc(N/C=C/C(=O)c2cc(OC)c(OC)c(OC)c2)cc1`, the AC50 [1] is reported as 15.8 µM [rising, partial curve] and the AC50 [2] is reported as 20 µM [falling, partial curve].
With `CCc1ccccc1NC(=O)c1cc(-c2ccc3c(c2)OCO3)on1` the AC50 [1] was 1.12 µM [falling, partial curve, poor fit].
With `O=C(CN1CCN(c2ccc(Cl)cc2)CC1)c1ccccc1` the AC50 [1] was 35.5 µM [falling, single point].
For `OC(CNCc1ccc(-c2ccccc2)cc1)c1ccccc1` (configuration not stated), the AC50 [1] was 35.5 µM [rising, single point] and the AC50 [2] was 25.1 µM [falling, partial curve, poor fit].
In the case of `CN(C)c1cccc(C(=O)NC2CCCc3ccccc32)c1` (configuration not stated), the AC50 [1] is reported as 1.58 µM [falling, full curve, poor fit].
With `O=C(/C=C/c1cccc(F)c1)c1ccc(N2CCOCC2)cc1` the AC50 [1] was 35.5 µM [rising, single point].
In the case of `CC(C)NC(=O)c1cc2nc(-c3ccco3)cc(C(F)(F)F)n2n1`, the AC50 [1] is reported as 3.26 µM [rising, full curve, poor fit].
In the case of `O=C(NCCc1c[nH]c2ccccc12)Nc1cccc2ccccc12`, the AC50 [1] is reported as 2.31 µM [falling, partial curve].
For `CC(C)OC(=O)CSc1nnc(-c2ccccc2)n1N`, the AC50 [1] was 25.9 µM [falling, single point].
For `CCOC(=O)CNC(=O)c1ccc2[nH]c3ccccc3c2c1`, the AC50 [2] was 8.91 µM [rising, partial curve, poor fit].
In the case of `CCCn1c(N)c(N(C)C)c(=O)n(CC(=O)Nc2ccc(OC(F)(F)F)cc2)c1=O`, the AC50 [1] is reported as 4.11 µM [rising, full curve, poor fit].
For `COc1cc([N+](=O)[O-])cc(/C=N/NC(=O)CSc2ccccn2)c1O`, the AC50 [1] was 7.08 µM [falling, full curve, poor fit].
In the case of `O=C(O)COc1ccc(NC(=O)c2ccc3c(c2)C(=O)N(Cc2ccccc2)C3=O)cc1`, the AC50 [1] is reported as 0.562 µM [falling, full curve, poor fit].
For `COc1ccc(S(=O)(=O)Nc2c3ccccc3nc(=O)n2-c2ccccc2)cc1`, the AC50 [1] was 9.2 µM [rising, partial curve, poor fit].
With `COc1ccccc1NC(=O)Nc1nnc(C(C)C)s1` the AC50 [1] was 0.58 µM [rising, full curve].
In the case of `O=C(NCCC1=CCCCC1)C1CCN(S(=O)(=O)c2ccc(Br)s2)CC1`, the AC50 [1] is reported as 25.9 µM [rising, single point].
For `CN(C)CCCN(C(=O)CCc1ccccc1)c1nc2c(F)cccc2s1`, the AC50 [1] was 16.4 µM [falling, partial curve].
With `CCn1c(-c2ccc(F)cc2)cnc1SCC(=O)N1CCCCC1C` (configuration not stated) the AC50 [1] was 14.6 µM [rising, partial curve, poor fit].
For `OC(COC(c1ccc(Cl)cc1)c1ccc(Cl)cc1)CN1CCc2ccccc2C1` (configuration not stated), the AC50 [1] was 29.1 µM [falling, single point].
In the case of `COc1ccccc1-n1cnc2c(c1=O)c1nc3ccccc3nc1n2-c1ccc(C)c(C)c1`, the AC50 [1] is reported as 0.58 µM [falling, full curve, poor fit].
With `Nc1ccccc1SCC(O)Cn1ccc2ccccc21` (configuration not stated) the AC50 [1] was 4.47 µM [rising, partial curve, poor fit].
With `O=C(Nc1ccc2c(c1)C(=O)N(c1ccccc1)C2=O)C1CCCO1` (configuration not stated) the AC50 [2] was 0.58 µM [rising, partial curve, poor fit].
In the case of `CCOc1ccccc1CN1CCN(Cc2cc3ccccc3[nH]2)CC1CCO` (configuration not stated), the AC50 [1] is reported as 10 µM [falling, partial curve].

Source: PubChem BioAssay AID493014 (National Center for Advancing Translational Sciences (NCATS), 2011)
